Experimental data from publication PMC11980398.
For at least one entry, the source does not settle the construct or the ends of the probe.

Protein sequences, listed by entry. Tags and fused reporters are not part of them. Lines headed by an entry give the natural chain unless they say otherwise; changes in a name come on top.
UniProt P36879: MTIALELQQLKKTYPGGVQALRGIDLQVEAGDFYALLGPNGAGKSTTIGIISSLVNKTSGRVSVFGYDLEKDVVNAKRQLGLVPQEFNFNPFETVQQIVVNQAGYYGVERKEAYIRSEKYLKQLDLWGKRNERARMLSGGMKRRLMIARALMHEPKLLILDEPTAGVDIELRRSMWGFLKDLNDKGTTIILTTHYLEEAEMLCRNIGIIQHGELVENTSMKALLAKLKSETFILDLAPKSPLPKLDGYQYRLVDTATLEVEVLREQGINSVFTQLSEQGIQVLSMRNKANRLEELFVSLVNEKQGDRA

Target: YadG (putative ABC transporter ATP-binding protein) (Escherichia coli J53) (UniProt P36879)
Test: pull-down, anti-His Western blot
Conditions: 5 mM Mg2+; Bio-11-UTP incorporated; pull-down: 4 C, 2 h, yeast tRNA; recombinant protein; residues 1-308; protein details: N-terminal His6 (pET28a, NdeI/HindIII); label: biotin (internal); probe letters rebuilt from the primers and the genome

“GGGGAUGAAGAUUACCGCCGGCGCAUUCUGACCCAGCUUAAUCGGGGAGAAAGUCGCCAUGCCGUUGCCAGAGCCAUCUGUCACGGUCAAAAAGGUGAGAUAAGAAAACGAUAUACCGACGGUCAGGAAGAUCAACUGGGCACACUGGGGCUGGUCACUAACGCCGUCGUGUUAUGGAACACUAUUUAUAUGCAGGCAGCCCUGGAUCAUCUCCGGGCGCAGGGUGAAACACUGAAUGAUGAAGAUAUCGCACGCCUCUCCCCGCUUUGCCACGGACAUAUCAAUAUGCUCGGCCAUUAUUCCUUCACGCUGGCAGAACUGGUGACCAAAGGACAUCUGAGACCAGGAUCCCG [biotinylated stnpA RNA]”: binds.
